Laboratory results as given in US9921212B2, “Preventive and therapeutic drug for cartilaginous hyperplasia and method of screening for the same” (KYOTO UNIVERSITY, priority 2014, dated 2018).
For at least one compound, name, drawing or mass did not settle the structure.

Tested on: SOX9
Experiment: mRNA expression of SOX9 in chondroprogenitor cells with forskolin and SQ22536 added
Type: cell-based, human
Conditions: wild-type and mutant-type chondroprogenitor cells
Description: mRNA was isolated from each cell using an RNeasy Mini Kit (Qiagen). cDNA was synthesized via reverse transcription using 1 μg of the obtained total RNA as a template and a Superscript III reverse transcriptase (Invitrogen). A standard curve for quantitative real-time PCR was created to conduct analysis. Real-time PCR analysis was conducted using a Power SYBR Green qPCR mastermix (Invitrogen) and a StepOne real-time PCR system (ABI) for quantitative determination.
In order to examine whether or not the […] signal transduction pathway is involved in cartilaginous hyperplasia, analysis was conducted using forskolin, which is an adenylate cyclase activator, and SQ22536, which is an adenylate cyclase inhibitor. This test was conducted by introducing a human SOX9 promoter into chondroprogenitor cells, immediately treating the cells with 10 μM forskolin (CALBIOCHEM) or 10 μM SQ22536 (Sigma-Aldrich), and incubating cells for 24 hours so as to determine luciferase activity. As a result, the SOX9 promoter activity in mutant-type chondroprogenitor cells treated with forskolin increased to a level 2.3 times that of mutant-type chondroprogenitor cells (control) treated with a base (DMSO) (FIG. 7D). Meanwhile, the SOX9 promoter activity in mutant-type chondroprogenitor cells treated with SQ22536 decreased to a level half that in the control (FIG. 7D).

## C=C[C@@]1(C)CC(=O)[C@]2(O)[C@@]3(C)[C@@H](O)CCC(C)(C)[C@@H]3[C@H](O)[C@H](OC(C)=O)[C@@]2(C)O1 [forskolin]
  effect on mRNA expression of SOX9, relation to SOX9 promoter activity data: correlated
